Results deposited as PubChem BioAssay AID1159584 (Peter MacCallum Cancer Centre, 2016)
The deposit covers about 18,000 reagents; shown is an unselected part. Reagents against one gene are numbered here. Not all columns of the deposit are shown. Not stated in the record: the amount of reagent, the time to read-out.

- Test: 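Genes that CDH1-null MCF10A cells selectively depend on to survive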 (primary screen)
- Cells: human MCF10A breast epithelial cells, parental and CDH1-null
- Reagent: siRNA against human genes
- Measurement: 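ATP luminescence (CellTiter-Glo) viability per line relative to mean mock wells over all plates, and the ratio of CDH1-null to parental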
- Direction: CDH1-null / parental viability ratio: higher = CDH1-null cells survive relatively better than parental

Target gene	reagent no.	CDH1-null / parental viability ratio
PCDHB1	1	0.85
TXNRD3	1	1.01
TXNRD3	2	0.95
POLH	1	0.75
INTU	1	1.05
ABHD12	1	1.1
MCCC1	1	0.99
C3orf36	1	1.12
HTT	1	1.08
RAX	1	1.17
TRMT5	1	0.82
OR1D4	1	1.47
TMEM135	1	0.95
MAP3K6	1	1.06
UTP11	1	1.42
SNX25	1	0.97
PDP2	1	1.38
LAMA2	1	0.96
WASF1	1	0.92
MBLAC1	1	1.3
PTPRO	1	1.28
KCTD10	1	1.34
ACOT12	1	1.14
GPX4	1	0.62
TRUB2	1	1.15
PSMD8	1	1.19
STPG2	1	0.97
ZNF431	1	1.18
RAP2C	1	0.93
GRK5	1	1.18
KRTAP15-1	1	1.18
SPPL2A	1	1.16
RGL4	1	1.28
BRINP2	1	1.27
ATF1	1	1
AKR7L	1	1.18
SLC38A10	1	1.36
SLC4A3	1	0.95
KIF3A	1	0.88
ZXDC	1	1.13
REG1A	1	1.11
CNGB1	1	1.33
PCDHGA5	1	0.96
KRTAP9-2	1	1.15
RNASE9	1	1
ARL15	1	0.95

Targets listed so far whose gene name starts with P or p:
Target gene	reagent no.	CDH1-null / parental viability ratio
PCDHB1	1	0.85
POLH	1	0.75
PDP2	1	1.38
PTPRO	1	1.28
PSMD8	1	1.19
PCDHGA5	1	0.96
